Data: US20100254996A1, “SYNERGISTIC TREATMENT OF CELLS THAT EXPRESS EPHA2 AND ERBB2” (MEDIMMUNE, LLC, priority 2007, published 2010)
These are yes or no findings as the source states them, for the method shown. In cells and extracts the contact can be indirect. Some binding calls cover weakened binding; strength is not graded here.

Sequences of proteins named here, by UniProt entry; tags and fusion partners are left off. Residues count along the entry.
UniProt P29317, residues 24-976: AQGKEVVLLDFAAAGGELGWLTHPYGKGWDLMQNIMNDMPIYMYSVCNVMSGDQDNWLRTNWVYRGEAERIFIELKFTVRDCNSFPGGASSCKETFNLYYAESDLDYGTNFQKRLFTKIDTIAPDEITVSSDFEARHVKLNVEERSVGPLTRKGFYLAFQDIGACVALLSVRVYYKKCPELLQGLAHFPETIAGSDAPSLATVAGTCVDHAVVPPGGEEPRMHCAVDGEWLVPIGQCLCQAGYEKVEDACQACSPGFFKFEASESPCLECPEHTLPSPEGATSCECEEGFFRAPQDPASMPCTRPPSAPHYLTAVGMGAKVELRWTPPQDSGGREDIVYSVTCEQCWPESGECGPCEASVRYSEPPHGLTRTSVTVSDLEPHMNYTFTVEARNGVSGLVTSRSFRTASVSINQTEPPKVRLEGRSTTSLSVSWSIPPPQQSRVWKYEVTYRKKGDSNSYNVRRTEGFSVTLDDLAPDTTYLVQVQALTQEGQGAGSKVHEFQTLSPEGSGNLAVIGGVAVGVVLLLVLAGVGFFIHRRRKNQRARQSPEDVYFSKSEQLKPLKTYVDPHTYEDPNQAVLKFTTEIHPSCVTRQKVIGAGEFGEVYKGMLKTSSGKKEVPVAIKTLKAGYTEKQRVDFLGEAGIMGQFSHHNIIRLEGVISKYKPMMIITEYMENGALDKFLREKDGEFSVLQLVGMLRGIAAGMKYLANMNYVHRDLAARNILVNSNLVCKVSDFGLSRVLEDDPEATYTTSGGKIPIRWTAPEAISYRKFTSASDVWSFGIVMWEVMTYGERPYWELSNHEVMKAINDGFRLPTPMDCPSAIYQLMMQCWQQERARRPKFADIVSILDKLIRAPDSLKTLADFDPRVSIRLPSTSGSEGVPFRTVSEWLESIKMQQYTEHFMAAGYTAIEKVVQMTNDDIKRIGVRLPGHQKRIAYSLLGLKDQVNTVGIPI

Experiments:
[1] = molecular target: myc-tagged human ErbB2 (pcDNA3-erbB2, expressed in COS7 cells) (human) (UniProt P04626); test: co-immunoprecipitation from transfected COS7 cell lysates, immunoblot
[2] = molecular target: myc-tagged human ErbB2 (pcDNA3-erbB2, expressed in COS7 cells) (human) (UniProt P04626); test: reciprocal co-immunoprecipitation from transfected COS7 cell lysates, immunoblot
[3] = molecular target: human ErbB2/HER2 (stably overexpressed in MCF10A cells) (human) (UniProt P04626); test: co-immunoprecipitation from MCF10A.HER2 cell lysates, immunoblot

Measured: binding

human EphA2 (from UniProt P29317 24-976) (receptor)
binds: [1] | [2] | [3]
